Data reported in the supplement of paper PMC4604168 (melanoma cell lines).
The other results are listed elsewhere or left out. Single values are uncertain, as repeats are few or missing.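 The apoptosis fraction was the count of cleaved-PARP antibody-stained nuclei relative to all DNA-stained nuclei, imaged in 1,536-well plates. Screening doses were set so most cells survived, and baseline and induced cleaved-PARP levels vary greatly across cell lines.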

Columns and labels:
Assay in all cases: cleaved PARP positive nuclei fraction relative to DMSO control; melanoma cells; higher = more apoptosis
Details in all cases: library dose: low library concentration; 72 h
501Mel = tested on: 501Mel
A101D = tested on: A101D
A2058 = tested on: A2058
A375 = tested on: A375
C32 = tested on: C32
CBRC013 = tested on: CBRC013 (line from a melanoma biopsy)
CBRC014 = tested on: CBRC014 (line from a melanoma biopsy)
CBRC016 = tested on: CBRC016 (line from a melanoma biopsy)
CBRC017 = tested on: CBRC017 (line from a melanoma biopsy)
CBRC008 = tested on: CBRC008 (line from a melanoma biopsy)

SMILES	cleaved PARP positive nuclei fraction (501Mel) [%]	cleaved PARP positive nuclei fraction (A101D) [%]	cleaved PARP positive nuclei fraction (A2058) [%]	cleaved PARP positive nuclei fraction (A375) [%]	cleaved PARP positive nuclei fraction (C32) [%]	cleaved PARP positive nuclei fraction (CBRC013) [%]	cleaved PARP positive nuclei fraction (CBRC014) [%]	cleaved PARP positive nuclei fraction (CBRC016) [%]	cleaved PARP positive nuclei fraction (CBRC017) [%]	cleaved PARP positive nuclei fraction (CBRC008) [%]
C#Cc1cccc(Nc2ncnc3cc(OCCOC)c(OCCOC)cc23)c1 [erlotinib] + CCc1ccc(CCOc2ccc(CC3SC(=O)NC3=O)cc2)nc1 [pioglitazone] (first compound 0.8 µM, partner dose 2 µM)	37.7	231	95.1	67.2	131	228	99	94.1	72.4	
O=C(CCCCCCC(=O)Nc1ccccc1)NO [vorinostat] + CCN(CC)CCCCNc1ncc2cc(-c3cc(OC)cc(OC)c3)c(NC(=O)NC(C)(C)C)nc2n1 [PD173074] (first compound 0.08 µM, partner dose 0.1 µM)	56.7	143	88.3	63.7	118	81.7	111	45	89.6	
COCC[n+]1c2c(n(Cc3cnccn3)c1C)C(=O)c1ccccc1C2=O + Cc1cc([N+](=O)[O-])ccc1NS(=O)(=O)c1cc(Cl)ccc1Cl [FH535] (first compound 0.0004 µM, partner dose 1 µM)	71.9	62.9	102	308	87.3	193	177	1880	744	
Cc1ccc(NC(=O)c2cccc(N(C)C)c2)cc1NC(=O)c1ccc(O)cc1 + O=C1NC(=O)/C(=C/c2ccc(-c3ccc(F)cc3O)o2)S1 [AS252424] (first compound 2 µM, partner dose 1 µM)	152	114	92.7	238	149	80.8	116	61.4	114	
Nc1cccc2c1CN(C1CCC(=O)NC1=O)C2=O (centres undefined) [lenalidomide] + CC(C)CCN1c2nc(Nc3cc(F)c(O)c(F)c3)ncc2N(C)C(=O)C1C [BID1870] (first compound 1 µM, partner dose 0.2 µM)	76	55.9	208	56.7	42.8	406	191	124	77.9	
Cc1nc(Nc2ncc(C(=O)Nc3c(C)cccc3Cl)s2)cc(N2CCN(CCO)CC2)n1 [dasatanib] + CCN(CC)CCCCNc1ncc2cc(-c3cc(OC)cc(OC)c3)c(NC(=O)NC(C)(C)C)nc2n1 [PD173074] (first compound 0.004 µM, partner dose 0.1 µM)	186	190	376	261	74.3	431	101	78.1	82.4	
Cc1cc(N2CCOCC2)cc2[nH]c(-c3c(NC[C@@H](O)c4cccc(Cl)c4)cc[nH]c3=O)nc12 + O=c1cc(-c2cccc3c2Sc2ccccc2S3)oc(N2CCOCC2)c1 [KU55933] (first compound 0.2 µM, partner dose 1 µM)	209	118	75.2	164	102	419	204	68.7	86	
O=C(CCCCCCC(=O)Nc1ccccc1)NO [vorinostat] + O=C1NC(=O)/C(=C/c2ccc(-c3ccc(F)cc3O)o2)S1 [AS252424] (first compound 0.08 µM, partner dose 1 µM)	76.9	114	35.6	43.3	117	252	221	142	118	
NC(=O)Nc1cc(-c2cccc(F)c2)sc1C(=O)N[C@H]1CCCNC1 + O=C1NC(=O)/C(=C/c2ccc(-c3ccc(F)cc3O)o2)S1 [AS252424] (first compound 0.02 µM, partner dose 1 µM)	112	140	44.9	237	361	49.1	101	74	91.7	
CC(C)(C)c1cnc(CSc2cnc(NC(=O)C3CCNCC3)s2)o1 + CCc1ccc(CCOc2ccc(CC3SC(=O)NC3=O)cc2)nc1 [pioglitazone] (first compound 0.01 µM, partner dose 2 µM)	72	34.6	87.8	116	194	51.8	103	82.8	85.9	
NC(=O)Nc1cc(-c2cccc(F)c2)sc1C(=O)N[C@H]1CCCNC1 + O=c1cc(-c2cccc3c2Sc2ccccc2S3)oc(N2CCOCC2)c1 [KU55933] (first compound 0.02 µM, partner dose 1 µM)	69.8	114	110	140	186	212	106	33.4	91.3	
Cn1c(Nc2ccc(C(F)(F)F)cc2)nc2cc(Oc3ccnc(-c4ncc(C(F)(F)F)[nH]4)c3)ccc21 + COC(=O)c1sccc1S(=O)(=O)Nc1ccc(Nc2ccccc2)cc1OC [GSK0660] (first compound 0.08 µM, partner dose 1 µM)	48.9	183	167	253	73	498	87.3	189	101	
OCCn1cc(-c2cnc3nnn(Cc4ccc5ncccc5c4)c3n2)cn1 + Cn1cc(/C=C2\C(=O)Nc3cccnc32)c2ccccc21 [GW441756] (first compound 1 µM, partner dose 0.4 µM)	79.4	52.3	48.5	99.9	131	91.9	93.1	107	88.6	
Cn1c(Nc2ccc(C(F)(F)F)cc2)nc2cc(Oc3ccnc(-c4ncc(C(F)(F)F)[nH]4)c3)ccc21 + COc1cc2ncnc(Nc3ccc(Oc4ccccc4)cc3)c2cc1OC [SrcI1] (first compound 0.08 µM, partner dose 2 µM)	112	570	79.5	363	53	238	75.4	70.3	52.1	
O=C(Nc1cccc(Cl)c1)Nc1ncc(CCNc2ncnc3ccsc23)s1 + Cn1cc(/C=C2\C(=O)Nc3cccnc32)c2ccccc21 [GW441756] (first compound 0.0008 µM, partner dose 0.4 µM)	213	184	80.9	142	43.2	185	96.6	128	83.5	
C[C@]1(c2nc3c(C(N)=O)cccc3[nH]2)CCCN1 [Veliparib] + O=C(O)C(=O)Nc1sc2c(c1C(=O)O)CCNC2 [TCS401] (first compound 1.4 µM, partner dose 1.66667 µM)	95.9	135	70.7	386	34.6	149	98.1	97.8	175	
Cn1nnc2c(C(N)=O)ncn2c1=O [temozolomide] + COc1ccc(COc2ccc(Cc3cnc(N)nc3N)cc2OC)cc1 [GW2580] (first compound 2 µM, partner dose 1 µM)	54.6	128	88	101	73.1	135	125	49.1	86.6	
C=CCn1c(=O)c2cnc(Nc3ccc(N4CCN(C)CC4)cc3)nc2n1-c1cccc(C(C)(C)O)n1 + CCN(CC)CCCCNc1ncc2cc(-c3cc(OC)cc(OC)c3)c(NC(=O)NC(C)(C)C)nc2n1 [PD173074] (first compound 0.02 µM, partner dose 0.1 µM)	140	91.4	124	439	118	128	126	214	98.7	
CC(C)(C)c1cnc(CSc2cnc(NC(=O)C3CCNCC3)s2)o1 + COC(=O)c1sccc1S(=O)(=O)Nc1ccc(Nc2ccccc2)cc1OC [GSK0660] (first compound 0.01 µM, partner dose 1 µM)	49.4	158	154	112	160	99.4	110	35.5	90.3	
COc1cc(Nc2ncc(F)c(Nc3ccc4c(n3)NC(=O)C(C)(C)O4)n2)cc(OC)c1OC [Tamatinib] + O=C1NC(=O)/C(=C/c2ccc(-c3ccc(F)cc3O)o2)S1 [AS252424] (first compound 0.4 µM, partner dose 1 µM)	217	191	107	105	124	76.5	96.9	87.7	77.4	
C#Cc1cccc(Nc2ncnc3cc(OCCOC)c(OCCOC)cc23)c1 [erlotinib] + c1cc(-c2cnn3cc(-c4ccc(OCCN5CCCCC5)cc4)cnc23)ccn1 [Dorsomorphin] (first compound 0.8 µM, partner dose 0.4 µM)	99.3	301	42.6	74.3	28.1	123	106	138	88.1	
C[C@]1(c2nc3c(C(N)=O)cccc3[nH]2)CCCN1 [Veliparib] + Oc1cc(-c2nc(-c3ccccc3)[nH]c2-c2ccncc2)ccc1Cl [L779450] (first compound 1.4 µM, partner dose 0.2 µM)	83.3	159	161	92.2	149	372	94.7	25.5	87.8	
NC(=O)Nc1cc(-c2cccc(F)c2)sc1C(=O)N[C@H]1CCCNC1 + O=S(=O)(c1ccccc1)N(CC(F)(F)F)c1ccc(C(O)(C(F)(F)F)C(F)(F)F)cc1 [T0901317] (first compound 0.02 µM, partner dose 1.4 µM)	78.3	196	113	407	80.6	51.9	96.7	105	187	
C#Cc1cccc(Nc2ncnc3cc(OCCOC)c(OCCOC)cc23)c1 [erlotinib] + CCN(CC)CCCCNc1ncc2cc(-c3cc(OC)cc(OC)c3)c(NC(=O)NC(C)(C)C)nc2n1 [PD173074] (first compound 0.8 µM, partner dose 0.1 µM)	219	106	37.4	39.8	198	123	80.4	57.2	82	
Clc1ccc(Nc2nnc(Cc3ccncc3)c3ccccc23)cc1 [vatalanib] + COc1ccc(COc2ccc(Cc3cnc(N)nc3N)cc2OC)cc1 [GW2580] (first compound 2 µM, partner dose 1 µM)	354	190	35.4		210		124	77.1	105	34.4

Another view of some results above:
SMILES | cleaved PARP positive nuclei fraction (501Mel) [%] | cleaved PARP positive nuclei fraction (A101D) [%] | cleaved PARP positive nuclei fraction (A2058) [%] | cleaved PARP positive nuclei fraction (A375) [%] | cleaved PARP positive nuclei fraction (C32) [%] | cleaved PARP positive nuclei fraction (CBRC013) [%] | cleaved PARP positive nuclei fraction (CBRC014) [%] | cleaved PARP positive nuclei fraction (CBRC016) [%] | cleaved PARP positive nuclei fraction (CBRC017) [%] | cleaved PARP positive nuclei fraction (CBRC008) [%]
C#Cc1cccc(Nc2ncnc3cc(OCCOC)c(OCCOC)cc23)c1 [erlotinib] + CCc1ccc(CCOc2ccc(CC3SC(=O)NC3=O)cc2)nc1 [pioglitazone] (first compound 0.8 µM, partner dose 2 µM) | 37.7 | 231 | 95.1 | 67.2 | 131 | 228 | 99 | 94.1 | 72.4 | 
O=C(Nc1cccc(Cl)c1)Nc1ncc(CCNc2ncnc3ccsc23)s1 + Cn1cc(/C=C2\C(=O)Nc3cccnc32)c2ccccc21 [GW441756] (first compound 0.0008 µM, partner dose 0.4 µM) | 213 | 184 | 80.9 | 142 | 43.2 | 185 | 96.6 | 128 | 83.5 | 
Cn1nnc2c(C(N)=O)ncn2c1=O [temozolomide] + COc1ccc(COc2ccc(Cc3cnc(N)nc3N)cc2OC)cc1 [GW2580] (first compound 2 µM, partner dose 1 µM) | 54.6 | 128 | 88 | 101 | 73.1 | 135 | 125 | 49.1 | 86.6 | 
COc1cc(Nc2ncc(F)c(Nc3ccc4c(n3)NC(=O)C(C)(C)O4)n2)cc(OC)c1OC [Tamatinib] + O=C1NC(=O)/C(=C/c2ccc(-c3ccc(F)cc3O)o2)S1 [AS252424] (first compound 0.4 µM, partner dose 1 µM) | 217 | 191 | 107 | 105 | 124 | 76.5 | 96.9 | 87.7 | 77.4 | 
C[C@]1(c2nc3c(C(N)=O)cccc3[nH]2)CCCN1 [Veliparib] + Oc1cc(-c2nc(-c3ccccc3)[nH]c2-c2ccncc2)ccc1Cl [L779450] (first compound 1.4 µM, partner dose 0.2 µM) | 83.3 | 159 | 161 | 92.2 | 149 | 372 | 94.7 | 25.5 | 87.8 | 
Clc1ccc(Nc2nnc(Cc3ccncc3)c3ccccc23)cc1 [vatalanib] + COc1ccc(COc2ccc(Cc3cnc(N)nc3N)cc2OC)cc1 [GW2580] (first compound 2 µM, partner dose 1 µM) | 354 | 190 | 35.4 |  | 210 |  | 124 | 77.1 | 105 | 34.4
